Data taken from the supplement of paper PMC4604168 (melanoma cell lines).
The other results are listed elsewhere or left out. Repeats are few or missing, and single values can be far off.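 The apoptosis fraction was the count of cleaved-PARP antibody-stained nuclei relative to all DNA-stained nuclei, imaged in 1,536-well plates. Screening doses were set so most cells survived, and baseline and induced cleaved-PARP levels vary greatly across cell lines.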

How the values were obtained:
Experiment in all cases: cleaved PARP positive nuclei fraction relative to DMSO control; melanoma cells; higher = more apoptosis
Conditions in all cases: library dose: low library concentration; 72 h
[1] = tested on: 501Mel
[2] = tested on: A101D
[3] = tested on: A2058
[4] = tested on: A375
[5] = tested on: C32
[6] = tested on: CBRC013 (line from a melanoma biopsy)
[7] = tested on: CBRC014 (line from a melanoma biopsy)
[8] = tested on: CBRC016 (line from a melanoma biopsy)
[9] = tested on: CBRC017 (line from a melanoma biopsy)

Row | Compound | cleaved PARP positive nuclei fraction [1] [%] | cleaved PARP positive nuclei fraction [2] [%] | cleaved PARP positive nuclei fraction [3] [%] | cleaved PARP positive nuclei fraction [4] [%] | cleaved PARP positive nuclei fraction [5] [%] | cleaved PARP positive nuclei fraction [6] [%] | cleaved PARP positive nuclei fraction [7] [%] | cleaved PARP positive nuclei fraction [8] [%] | cleaved PARP positive nuclei fraction [9] [%]
1 | C[C@@H]1CCN(C(=O)CC#N)C[C@@H]1N(C)c1ncnc2[nH]ccc12 + COc1ccc(-c2ccc3c(N4CCOCC4)nc(N4C[C@@H](C)O[C@@H](C)C4)nc3n2)cc1CO [KU0063794] (first compound 1 µM, partner dose 0.02 µM) | 120 | 188 | 135 | 43.2 | 104 | 60.3 | 92.9 | 76.5 | 142
2 | C#Cc1cccc(Nc2ncnc3cc(OCCOC)c(OCCOC)cc23)c1 [erlotinib] + Cc1cc([N+](=O)[O-])ccc1NS(=O)(=O)c1cc(Cl)ccc1Cl [FH535] (first compound 0.8 µM, partner dose 1 µM) | 49.6 | 151 | 146 | 424 | 60.6 | 121 | 187 | 1050 | 368
3 | COCC[n+]1c2c(n(Cc3cnccn3)c1C)C(=O)c1ccccc1C2=O + COc1ccc(COc2ccc(Cc3cnc(N)nc3N)cc2OC)cc1 [GW2580] (first compound 0.0004 µM, partner dose 1 µM) | 159 | 360 | 102 | 450 | 119 | 65 | 89.8 | 56.4 | 81.2
4 | CO[C@@H]1[C@H](N(C)C(=O)c2ccccc2)C[C@H]2O[C@]1(C)n1c3ccccc3c3c4c(c5c6ccccc6n2c5c31)C(=O)NC4 [Midostaurin] + CCN(CC)CCCCNc1ncc2cc(-c3cc(OC)cc(OC)c3)c(NC(=O)NC(C)(C)C)nc2n1 [PD173074] (first compound 0.08 µM, partner dose 0.1 µM) | 45 | 182 | 149 | 169 | 112 | 28.5 | 93.2 | 124 | 71.2
5 | Cc1ccc(NC(=O)c2cccc(N(C)C)c2)cc1NC(=O)c1ccc(O)cc1 + N#Cc1c(O)c2c(-c3ccc(-c4ccccc4O)cc3)csc2[nH]c1=O [A769662] (first compound 2 µM, partner dose 2 µM) | 107 | 97.4 | 118 | 86.9 | 72.2 | 143 | 114 | 57.2 | 196
6 | NC(=O)Nc1cc(-c2cccc(F)c2)sc1C(=O)N[C@H]1CCCNC1 + CCCCCCCCCCCC1=C(O)C(=O)C=C(O)C1=O [Embelin] (first compound 0.02 µM, partner dose 1.2 µM) | 72.1 | 41.2 | 44.8 | 148 | 167 | 67.4 | 116 | 122 | 72.6
7 | NC(=O)Nc1cc(-c2cccc(F)c2)sc1C(=O)N[C@H]1CCCNC1 + CC(C)CCN1c2nc(Nc3cc(F)c(O)c(F)c3)ncc2N(C)C(=O)C1C [BID1870] (first compound 0.02 µM, partner dose 0.2 µM) | 81.2 | 67.5 | 133 | 223 | 319 | 57.2 | 86.1 | 160 | 91.8
8 | Cc1cc(N2CCOCC2)cc2[nH]c(-c3c(NC[C@@H](O)c4cccc(Cl)c4)cc[nH]c3=O)nc12 + O=C(Nc1ccccc1)c1cc([N+](=O)[O-])ccc1Cl [GW9662] (first compound 0.2 µM, partner dose 2 µM) | 63.1 | 79 | 17.5 | 151 | 67.8 | 296 | 120 | 113 | 76.4
9 | O=C(CCCCCCC(=O)Nc1ccccc1)NO [vorinostat] + COc1ccc(-c2ccc3c(N4CCOCC4)nc(N4C[C@@H](C)O[C@@H](C)C4)nc3n2)cc1CO [KU0063794] (first compound 0.08 µM, partner dose 0.02 µM) | 82.9 | 130 | 107 | 52.7 | 114 | 125 | 97.4 | 101 | 85.8
10 | Cn1c(Nc2ccc(C(F)(F)F)cc2)nc2cc(Oc3ccnc(-c4ncc(C(F)(F)F)[nH]4)c3)ccc21 + O=c1cc(-c2cccc3c2Sc2ccccc2S3)oc(N2CCOCC2)c1 [KU55933] (first compound 0.08 µM, partner dose 1 µM) | 49.8 | 337 | 37.1 | 277 | 34.7 | 117 | 110 | 94.6 | 84.9
11 | CO[C@@H]1[C@H](N(C)C(=O)c2ccccc2)C[C@H]2O[C@]1(C)n1c3ccccc3c3c4c(c5c6ccccc6n2c5c31)C(=O)NC4 [Midostaurin] + COc1ccc(COc2ccc(Cc3cnc(N)nc3N)cc2OC)cc1 [GW2580] (first compound 0.08 µM, partner dose 1 µM) | 177 | 334 | 65.6 | 107 | 35.5 | 61.1 | 105 | 185 | 60
12 | CO[C@@H]1[C@H](N(C)C(=O)c2ccccc2)C[C@H]2O[C@]1(C)n1c3ccccc3c3c4c(c5c6ccccc6n2c5c31)C(=O)NC4 [Midostaurin] + O=C(O)C(=O)Nc1sc2c(c1C(=O)O)CCNC2 [TCS401] (first compound 0.08 µM, partner dose 1.66667 µM) | 67 | 337 | 40.6 | 81.4 | 137 | 126 | 73.6 | 143 | 65.6
13 | COc1cc(Nc2ncc(F)c(Nc3ccc4c(n3)NC(=O)C(C)(C)O4)n2)cc(OC)c1OC [Tamatinib] + CCCCCCCCCCCC1=C(O)C(=O)C=C(O)C1=O [Embelin] (first compound 0.4 µM, partner dose 1.2 µM) | 79.3 | 199 | 128 | 35.5 | 82.4 | 550 | 87.1 | 19.7 | 87.1
14 | C#Cc1cccc(Nc2ncnc3cc(OCCOC)c(OCCOC)cc23)c1 [erlotinib] + COc1ccc2c(c1)CCC1C2CCC2(C)C(NCCCCCCN3C(=O)C=CC3=O)CCC12 [U73122] (first compound 0.8 µM, partner dose 0.4 µM) | 39.9 | 45.8 | 75 | 94.8 | 44.9 | 78.7 | 92.6 | 73.9 | 100
15 | Cn1cncc1[C@@](N)(c1ccc(Cl)cc1)c1ccc2c(c1)c(-c1cccc(Cl)c1)cc(=O)n2C [tipifarnib] + O=c1cc(-c2cccc3c2Sc2ccccc2S3)oc(N2CCOCC2)c1 [KU55933] (first compound 0.01 µM, partner dose 1 µM) | 93.7 | 50.2 | 99 | 109 | 94.7 | 283 | 104 | 81.7 | 209
16 | O=C(Nc1cccc(Cl)c1)Nc1ncc(CCNc2ncnc3ccsc23)s1 + O=S(=O)(c1ccccc1)N(CC(F)(F)F)c1ccc(C(O)(C(F)(F)F)C(F)(F)F)cc1 [T0901317] (first compound 0.0008 µM, partner dose 1.4 µM) | 83.9 | 77.6 | 125 | 104 | 112 | 185 | 99 | 74.6 | 98.3
17 | O=C(Nc1cccc(Cl)c1)Nc1ncc(CCNc2ncnc3ccsc23)s1 + COc1ccc2c(c1)CCC1C2CCC2(C)C(NCCCCCCN3C(=O)C=CC3=O)CCC12 [U73122] (first compound 0.0008 µM, partner dose 0.4 µM) | 80.2 | 52.1 | 83.9 | 178 | 68.1 | 155 | 97.8 | 178 | 96.4
18 | COCC[n+]1c2c(n(Cc3cnccn3)c1C)C(=O)c1ccccc1C2=O + COc1ccc2c(c1)CCC1C2CCC2(C)C(NCCCCCCN3C(=O)C=CC3=O)CCC12 [U73122] (first compound 0.0004 µM, partner dose 0.4 µM) | 68.8 | 68.3 | 72.4 | 170 | 111 | 19.4 | 120 | 140 | 44.4
19 | CO[C@@H]1[C@H](N(C)C(=O)c2ccccc2)C[C@H]2O[C@]1(C)n1c3ccccc3c3c4c(c5c6ccccc6n2c5c31)C(=O)NC4 [Midostaurin] + Cc1cc([N+](=O)[O-])ccc1NS(=O)(=O)c1cc(Cl)ccc1Cl [FH535] (first compound 0.08 µM, partner dose 1 µM) | 29.5 | 295 | 69.8 | 89.6 | 218 | 324 | 149 | 1170 | 327
20 | Cc1ccc(NC(=O)c2cccc(N(C)C)c2)cc1NC(=O)c1ccc(O)cc1 + O=C(Nc1ccccc1)c1cc([N+](=O)[O-])ccc1Cl [GW9662] (first compound 2 µM, partner dose 2 µM) | 118 | 65.9 | 135 | 56.2 | 356 | 247 | 104 | 140 | 104
21 | Cc1ccc(NC(=O)c2cccc(N(C)C)c2)cc1NC(=O)c1ccc(O)cc1 + O=c1cc(-c2cccc3c2Sc2ccccc2S3)oc(N2CCOCC2)c1 [KU55933] (first compound 2 µM, partner dose 1 µM) | 228 | 145 | 57.2 | 91.4 | 73.1 | 67 | 117 | 106 | 89.3
22 | OCCn1cc(-c2cnc3nnn(Cc4ccc5ncccc5c4)c3n2)cn1 + O=C1NC(=O)/C(=C/c2ccc(-c3ccc(F)cc3O)o2)S1 [AS252424] (first compound 1 µM, partner dose 1 µM) | 78 | 104 | 70.5 | 138 | 149 | 31.6 | 80.1 | 116 | 81.7
23 | NC(=O)Nc1cc(-c2cccc(F)c2)sc1C(=O)N[C@H]1CCCNC1 + Cn1cc(/C=C2\C(=O)Nc3cccnc32)c2ccccc21 [GW441756] (first compound 0.02 µM, partner dose 0.4 µM) | 74.9 | 137 | 120 | 614 | 67.9 | 107 | 89.5 | 114 | 66.4

Limited to cleaved PARP positive nuclei fraction [3] [%] and cleaved PARP positive nuclei fraction [9] [%] (two entries from above):

| Row | Compound | cleaved PARP positive nuclei fraction [3] [%] | cleaved PARP positive nuclei fraction [9] [%] |
| --- | --- | --- | --- |
| 17 | O=C(Nc1cccc(Cl)c1)Nc1ncc(CCNc2ncnc3ccsc23)s1 + COc1ccc2c(c1)CCC1C2CCC2(C)C(NCCCCCCN3C(=O)C=CC3=O)CCC12 [U73122] (first compound 0.0008 µM, partner dose 0.4 µM) | 83.9 | 96.4 |
| 18 | COCC[n+]1c2c(n(Cc3cnccn3)c1C)C(=O)c1ccccc1C2=O + COc1ccc2c(c1)CCC1C2CCC2(C)C(NCCCCCCN3C(=O)C=CC3=O)CCC12 [U73122] (first compound 0.0004 µM, partner dose 0.4 µM) | 72.4 | 44.4 |
